Test results from publication PMC8327139, “Nodal modulator (NOMO) is required to sustain endoplasmic reticulum morphology” (The Journal of Biological Chemistry, 2021).
No constants are given. Whether binding was seen depends on the method and setting.

Protein sequences, listed by entry. Tags and fused reporters are not part of them. Residues count along the entry.
UniProt Q15155, residues 32-1160: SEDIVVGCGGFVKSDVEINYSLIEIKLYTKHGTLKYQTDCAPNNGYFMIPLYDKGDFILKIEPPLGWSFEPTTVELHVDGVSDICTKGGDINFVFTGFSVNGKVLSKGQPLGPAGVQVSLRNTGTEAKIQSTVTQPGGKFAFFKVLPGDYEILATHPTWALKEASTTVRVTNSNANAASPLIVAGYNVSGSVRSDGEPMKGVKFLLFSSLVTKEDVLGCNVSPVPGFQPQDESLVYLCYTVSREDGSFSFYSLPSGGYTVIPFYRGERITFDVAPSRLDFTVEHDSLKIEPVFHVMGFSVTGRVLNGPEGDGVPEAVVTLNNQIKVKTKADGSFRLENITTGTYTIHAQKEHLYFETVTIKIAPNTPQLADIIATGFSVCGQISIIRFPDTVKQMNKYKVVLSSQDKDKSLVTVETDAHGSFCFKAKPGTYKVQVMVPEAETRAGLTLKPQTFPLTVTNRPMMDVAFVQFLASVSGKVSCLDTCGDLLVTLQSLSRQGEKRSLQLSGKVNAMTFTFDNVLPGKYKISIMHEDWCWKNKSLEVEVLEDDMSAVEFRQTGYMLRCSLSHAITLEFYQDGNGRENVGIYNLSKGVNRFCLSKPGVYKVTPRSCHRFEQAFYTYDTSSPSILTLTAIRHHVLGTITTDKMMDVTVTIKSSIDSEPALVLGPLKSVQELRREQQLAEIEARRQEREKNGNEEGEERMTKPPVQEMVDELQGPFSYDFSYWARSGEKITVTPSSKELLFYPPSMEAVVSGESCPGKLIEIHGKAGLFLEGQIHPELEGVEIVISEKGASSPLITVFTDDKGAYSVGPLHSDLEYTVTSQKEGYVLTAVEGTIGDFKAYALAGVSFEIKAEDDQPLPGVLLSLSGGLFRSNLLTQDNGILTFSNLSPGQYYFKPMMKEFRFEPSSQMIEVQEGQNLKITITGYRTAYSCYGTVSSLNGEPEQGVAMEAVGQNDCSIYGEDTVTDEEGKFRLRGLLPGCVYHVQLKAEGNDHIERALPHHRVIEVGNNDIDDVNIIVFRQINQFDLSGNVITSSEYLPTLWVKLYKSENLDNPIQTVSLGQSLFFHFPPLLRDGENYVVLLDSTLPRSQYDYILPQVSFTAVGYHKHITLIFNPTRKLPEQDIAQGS

Molecular target: NOMO^LD-FLAG (NOMO1 luminal domain, residues 1 to 1160, C-terminal FLAG tag) (human) (UniProt Q15155)
Experiment: SEC-MALS; NOMO^LD-FLAG on a Superose 6 column, RT, 50 mM MES pH 6.0, 150 mM KCl, 5 mM MgCl2, 5 mM CaCl2, 2% glycerol, 0.005% DDM; protein conjugate analysis; both purified

Q: Which binding does the source give for “NOMO^LD-FLAG (NOMO1 luminal domain, residues 1 to 1160, C-terminal FLAG tag) (from UniProt Q15155 32-1160) (domain or fragment)” here?
A: no binding
